Test results published in US8613931B2, “Compounds for treating beta-amyloidoses” (Affiris AG, priority 2008, dated 2013).
Some results were stated once for a whole list of compounds, not compound by compound.

tested on: irrelevant peptide p1454; test: Mimotope vaccination, serum titers against irrelevant peptide; format: in vivo, C57/bl6 mice; settings: sera of mice s.c. immunized with 30 μg peptide coupled to KLH, alum

**Q.** How did the “titers against irrelevant peptide p1454 relative to injected peptides” value turn out when ILFRHGC [p4390] was run?
**A.** > 10 × less than injected peptides

**Q.** TSFRHGC [p4382] was tested. Which “titers against irrelevant peptide p1454 relative to injected peptides” value did it give?
**A.** > 10 × less than injected peptides

**Q.** How did the “titers against irrelevant peptide p1454 relative to injected peptides” value turn out when SEFKHGC [p4381] was run?
**A.** > 10 × less than injected peptides

**Q.** How did the “titers against irrelevant peptide p1454 relative to injected peptides” value turn out when “EFRHDS-C (EFRHDSC) [p4371, reference compound]” was run?
**A.** > 10 × less than injected peptides
